This is one part of the list.
Key:
Experiment in all cases: log2 fold change, soluble protein after heating vs DMSO (PISA); higher = thermal stabilisation; K562 lysate, 10 uM; active = over 0.2 and 3.5 SD of the protein, either way, in both replicates (recomputed)
nilotinib = compound: Cc1cn(-c2cc(NC(=O)c3ccc(C)c(Nc4nccc(-c5cccnc5)n4)c3)cc(C(F)(F)F)c2)cn1 [nilotinib]
Summary of the method: (§1)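 Values give the log-two fold change in thermal stability against solvent controls, from duplicates. Crude K562 extract at 1 mg/mL protein, made by dounce homogenisation in PBS pH 7.4 with 1 mM MgCl2, was treated with 10 μM compound for 30 min. After 3 min heating across 48°C-58°C, aliquots were pooled, adjusted to 0.5% NP-40 at 4°C and centrifuged at 21,000xg for 90 min. The supernatant was measured by TMTpro 16plex LC-MS/MS with channel sums equalised.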

Chains of the proteins cited; added tags and fusions are not shown. Lines headed by an entry give the natural chain unless they say otherwise; changes in a name come on top.
UniProt Q9NRR3: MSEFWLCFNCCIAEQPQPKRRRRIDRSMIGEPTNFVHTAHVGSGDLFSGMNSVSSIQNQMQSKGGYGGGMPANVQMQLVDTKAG
UniProt Q69YH5: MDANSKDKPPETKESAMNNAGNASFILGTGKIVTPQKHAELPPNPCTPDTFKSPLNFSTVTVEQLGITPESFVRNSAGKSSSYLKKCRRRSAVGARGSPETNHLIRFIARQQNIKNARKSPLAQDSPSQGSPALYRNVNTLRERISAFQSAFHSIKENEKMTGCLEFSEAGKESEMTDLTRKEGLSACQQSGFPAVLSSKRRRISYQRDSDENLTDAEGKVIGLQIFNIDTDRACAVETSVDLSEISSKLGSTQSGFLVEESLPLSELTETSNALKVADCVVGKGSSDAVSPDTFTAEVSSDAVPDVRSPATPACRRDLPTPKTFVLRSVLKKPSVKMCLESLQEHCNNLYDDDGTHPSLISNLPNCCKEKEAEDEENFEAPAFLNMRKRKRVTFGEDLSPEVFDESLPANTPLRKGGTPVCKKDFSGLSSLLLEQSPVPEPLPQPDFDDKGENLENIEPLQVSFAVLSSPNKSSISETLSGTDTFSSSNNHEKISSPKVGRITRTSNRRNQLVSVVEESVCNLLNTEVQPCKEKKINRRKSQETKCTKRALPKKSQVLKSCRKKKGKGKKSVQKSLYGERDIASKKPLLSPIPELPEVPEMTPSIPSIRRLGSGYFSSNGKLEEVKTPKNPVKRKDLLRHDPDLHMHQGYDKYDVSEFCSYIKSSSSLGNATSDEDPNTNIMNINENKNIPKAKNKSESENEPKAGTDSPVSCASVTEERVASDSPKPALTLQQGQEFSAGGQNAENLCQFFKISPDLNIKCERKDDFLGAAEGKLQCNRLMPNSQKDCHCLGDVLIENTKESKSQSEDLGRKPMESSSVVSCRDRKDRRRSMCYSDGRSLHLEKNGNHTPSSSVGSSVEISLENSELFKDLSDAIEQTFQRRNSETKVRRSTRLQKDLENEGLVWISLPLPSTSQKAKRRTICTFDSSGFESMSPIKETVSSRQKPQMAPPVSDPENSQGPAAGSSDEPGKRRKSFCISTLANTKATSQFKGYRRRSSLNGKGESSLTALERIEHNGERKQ
UniProt Q12834, whole entry, looked up: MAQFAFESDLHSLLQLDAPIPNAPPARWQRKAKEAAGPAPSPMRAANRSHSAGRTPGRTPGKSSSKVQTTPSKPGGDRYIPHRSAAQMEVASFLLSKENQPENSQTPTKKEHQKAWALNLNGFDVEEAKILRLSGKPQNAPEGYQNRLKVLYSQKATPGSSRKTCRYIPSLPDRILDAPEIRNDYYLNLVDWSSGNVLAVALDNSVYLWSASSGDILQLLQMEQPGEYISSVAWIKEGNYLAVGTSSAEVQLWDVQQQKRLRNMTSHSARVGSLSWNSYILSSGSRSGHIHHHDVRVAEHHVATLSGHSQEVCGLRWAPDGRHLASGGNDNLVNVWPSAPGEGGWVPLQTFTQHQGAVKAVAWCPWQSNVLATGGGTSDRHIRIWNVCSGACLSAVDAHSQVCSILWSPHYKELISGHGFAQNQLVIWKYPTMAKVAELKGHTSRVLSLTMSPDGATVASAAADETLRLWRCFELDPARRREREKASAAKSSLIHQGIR
UniProt Q9UQ88: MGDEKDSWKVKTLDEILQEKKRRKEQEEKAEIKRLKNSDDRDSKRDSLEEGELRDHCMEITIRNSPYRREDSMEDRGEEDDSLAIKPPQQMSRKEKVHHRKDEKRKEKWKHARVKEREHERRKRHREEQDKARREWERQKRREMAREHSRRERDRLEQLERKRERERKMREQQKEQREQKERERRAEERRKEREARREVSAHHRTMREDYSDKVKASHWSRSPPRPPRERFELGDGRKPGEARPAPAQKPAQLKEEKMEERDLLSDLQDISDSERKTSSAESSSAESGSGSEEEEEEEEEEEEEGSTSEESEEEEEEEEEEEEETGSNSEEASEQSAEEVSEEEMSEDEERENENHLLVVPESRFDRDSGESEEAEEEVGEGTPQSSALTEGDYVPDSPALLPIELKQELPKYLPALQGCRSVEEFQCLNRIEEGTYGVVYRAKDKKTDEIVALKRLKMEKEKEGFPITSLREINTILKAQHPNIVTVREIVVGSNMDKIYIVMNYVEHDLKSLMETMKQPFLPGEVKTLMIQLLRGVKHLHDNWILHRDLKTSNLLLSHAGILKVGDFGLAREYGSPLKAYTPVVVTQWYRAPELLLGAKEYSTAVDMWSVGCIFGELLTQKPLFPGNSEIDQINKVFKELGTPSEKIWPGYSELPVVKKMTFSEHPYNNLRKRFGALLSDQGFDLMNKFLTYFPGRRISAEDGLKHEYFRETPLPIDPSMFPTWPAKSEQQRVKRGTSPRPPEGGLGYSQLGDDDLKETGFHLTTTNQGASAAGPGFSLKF
UniProt Q99618: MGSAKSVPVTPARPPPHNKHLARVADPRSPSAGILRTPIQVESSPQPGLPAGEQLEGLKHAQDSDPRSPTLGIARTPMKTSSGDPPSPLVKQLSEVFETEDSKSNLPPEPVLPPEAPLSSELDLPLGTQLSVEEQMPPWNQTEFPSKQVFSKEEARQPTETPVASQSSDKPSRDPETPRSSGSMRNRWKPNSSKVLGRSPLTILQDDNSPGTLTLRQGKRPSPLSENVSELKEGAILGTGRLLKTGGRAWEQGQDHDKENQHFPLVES
UniProt Q9H3Q1: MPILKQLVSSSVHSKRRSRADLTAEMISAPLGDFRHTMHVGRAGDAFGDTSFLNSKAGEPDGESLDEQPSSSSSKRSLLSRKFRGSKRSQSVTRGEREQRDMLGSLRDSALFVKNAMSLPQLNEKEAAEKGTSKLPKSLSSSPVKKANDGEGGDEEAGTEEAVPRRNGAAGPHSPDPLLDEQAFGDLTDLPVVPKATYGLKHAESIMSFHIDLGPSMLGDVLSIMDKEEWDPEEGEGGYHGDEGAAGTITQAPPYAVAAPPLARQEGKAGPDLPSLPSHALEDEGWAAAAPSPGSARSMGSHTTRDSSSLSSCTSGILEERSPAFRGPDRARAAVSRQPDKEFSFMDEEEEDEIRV
UniProt P60953, whole entry, looked up: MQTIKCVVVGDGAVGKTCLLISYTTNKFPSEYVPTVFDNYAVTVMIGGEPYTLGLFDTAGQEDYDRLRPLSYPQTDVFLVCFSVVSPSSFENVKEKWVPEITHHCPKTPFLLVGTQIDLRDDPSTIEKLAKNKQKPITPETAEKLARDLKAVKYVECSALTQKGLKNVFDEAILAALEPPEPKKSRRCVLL
UniProt P08603, whole entry, looked up: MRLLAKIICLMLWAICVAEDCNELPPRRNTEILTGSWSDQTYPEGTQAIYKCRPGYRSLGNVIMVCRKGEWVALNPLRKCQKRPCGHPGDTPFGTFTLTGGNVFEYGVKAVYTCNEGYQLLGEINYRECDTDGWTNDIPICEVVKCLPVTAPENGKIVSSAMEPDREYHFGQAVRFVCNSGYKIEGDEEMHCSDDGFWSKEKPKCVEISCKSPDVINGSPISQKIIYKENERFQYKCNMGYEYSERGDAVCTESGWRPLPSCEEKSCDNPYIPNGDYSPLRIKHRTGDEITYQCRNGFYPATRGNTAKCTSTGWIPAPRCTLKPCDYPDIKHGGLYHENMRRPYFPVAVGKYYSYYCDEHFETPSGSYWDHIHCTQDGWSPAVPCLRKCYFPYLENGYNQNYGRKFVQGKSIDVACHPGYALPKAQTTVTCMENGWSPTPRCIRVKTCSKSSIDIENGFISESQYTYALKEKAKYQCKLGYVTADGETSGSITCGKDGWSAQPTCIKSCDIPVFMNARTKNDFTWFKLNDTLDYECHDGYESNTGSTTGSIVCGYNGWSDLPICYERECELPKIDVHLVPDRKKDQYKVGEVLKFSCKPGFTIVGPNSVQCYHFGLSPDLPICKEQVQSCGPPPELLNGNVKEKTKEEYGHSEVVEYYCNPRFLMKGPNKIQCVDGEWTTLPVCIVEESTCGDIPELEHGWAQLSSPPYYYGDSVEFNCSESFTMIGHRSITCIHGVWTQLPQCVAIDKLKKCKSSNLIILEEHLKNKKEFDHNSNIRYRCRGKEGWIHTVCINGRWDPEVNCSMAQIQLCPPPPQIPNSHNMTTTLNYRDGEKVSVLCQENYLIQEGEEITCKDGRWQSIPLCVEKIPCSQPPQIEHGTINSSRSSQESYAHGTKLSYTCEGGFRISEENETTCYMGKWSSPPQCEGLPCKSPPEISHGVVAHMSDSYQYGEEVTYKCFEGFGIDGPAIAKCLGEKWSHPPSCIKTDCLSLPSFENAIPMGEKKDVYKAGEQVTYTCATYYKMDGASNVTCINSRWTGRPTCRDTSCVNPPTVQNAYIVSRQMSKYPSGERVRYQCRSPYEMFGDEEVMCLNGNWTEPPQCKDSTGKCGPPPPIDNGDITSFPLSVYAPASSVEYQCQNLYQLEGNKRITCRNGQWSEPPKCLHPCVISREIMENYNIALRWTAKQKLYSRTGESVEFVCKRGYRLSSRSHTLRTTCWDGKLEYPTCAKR
UniProt O14519: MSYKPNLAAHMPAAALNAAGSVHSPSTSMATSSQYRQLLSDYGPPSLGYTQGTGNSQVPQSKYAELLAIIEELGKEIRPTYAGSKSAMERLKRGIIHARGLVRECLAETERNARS
UniProt Q96SN8: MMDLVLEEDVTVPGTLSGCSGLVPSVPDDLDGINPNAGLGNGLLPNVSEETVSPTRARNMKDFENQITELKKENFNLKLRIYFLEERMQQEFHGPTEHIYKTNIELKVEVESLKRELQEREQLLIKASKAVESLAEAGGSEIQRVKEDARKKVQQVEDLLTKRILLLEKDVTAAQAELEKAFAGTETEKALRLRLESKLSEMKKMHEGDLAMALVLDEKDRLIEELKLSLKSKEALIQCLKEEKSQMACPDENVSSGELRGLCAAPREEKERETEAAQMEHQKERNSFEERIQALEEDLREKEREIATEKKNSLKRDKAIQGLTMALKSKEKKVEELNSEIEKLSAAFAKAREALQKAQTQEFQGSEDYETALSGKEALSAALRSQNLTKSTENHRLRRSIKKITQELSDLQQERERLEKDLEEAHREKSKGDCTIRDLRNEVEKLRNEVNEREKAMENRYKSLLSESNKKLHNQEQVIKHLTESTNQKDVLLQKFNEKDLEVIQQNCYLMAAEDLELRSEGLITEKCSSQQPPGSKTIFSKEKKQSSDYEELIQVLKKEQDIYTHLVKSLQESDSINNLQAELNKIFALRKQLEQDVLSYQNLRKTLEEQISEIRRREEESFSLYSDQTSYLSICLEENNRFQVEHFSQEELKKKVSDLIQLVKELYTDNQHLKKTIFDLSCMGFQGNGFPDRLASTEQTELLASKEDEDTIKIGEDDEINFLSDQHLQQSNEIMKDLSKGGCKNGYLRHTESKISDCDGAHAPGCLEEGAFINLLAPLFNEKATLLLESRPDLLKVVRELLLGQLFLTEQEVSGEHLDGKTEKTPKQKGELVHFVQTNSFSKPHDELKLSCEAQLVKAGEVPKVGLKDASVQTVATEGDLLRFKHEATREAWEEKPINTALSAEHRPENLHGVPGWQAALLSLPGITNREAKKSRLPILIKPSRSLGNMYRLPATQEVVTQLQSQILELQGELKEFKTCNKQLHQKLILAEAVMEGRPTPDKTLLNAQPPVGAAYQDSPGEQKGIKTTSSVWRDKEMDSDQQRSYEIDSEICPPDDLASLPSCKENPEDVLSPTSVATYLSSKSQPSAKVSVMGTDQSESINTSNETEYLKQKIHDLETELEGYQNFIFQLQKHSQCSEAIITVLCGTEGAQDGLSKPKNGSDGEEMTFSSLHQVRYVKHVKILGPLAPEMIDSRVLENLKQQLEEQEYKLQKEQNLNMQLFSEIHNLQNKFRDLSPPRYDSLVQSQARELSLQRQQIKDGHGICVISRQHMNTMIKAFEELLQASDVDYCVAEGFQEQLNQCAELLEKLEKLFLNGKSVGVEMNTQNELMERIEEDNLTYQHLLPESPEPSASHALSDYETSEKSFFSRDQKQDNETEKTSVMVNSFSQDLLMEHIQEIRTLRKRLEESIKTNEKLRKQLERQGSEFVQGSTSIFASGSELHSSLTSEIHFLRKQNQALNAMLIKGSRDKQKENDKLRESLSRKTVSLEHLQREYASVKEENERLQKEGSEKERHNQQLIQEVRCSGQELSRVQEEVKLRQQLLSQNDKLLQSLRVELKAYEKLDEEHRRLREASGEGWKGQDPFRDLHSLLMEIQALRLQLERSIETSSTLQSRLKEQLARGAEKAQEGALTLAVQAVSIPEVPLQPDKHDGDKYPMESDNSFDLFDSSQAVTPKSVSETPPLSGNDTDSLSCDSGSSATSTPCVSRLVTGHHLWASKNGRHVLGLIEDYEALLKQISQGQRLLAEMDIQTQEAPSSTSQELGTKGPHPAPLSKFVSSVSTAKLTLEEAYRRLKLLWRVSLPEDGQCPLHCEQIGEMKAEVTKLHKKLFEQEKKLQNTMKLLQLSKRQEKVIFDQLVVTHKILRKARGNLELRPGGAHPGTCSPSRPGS

[1] = compound: Cc1nc(Nc2n[nH]c3c2CN(C(=O)N[C@H](CN(C)C)c2ccccc2)C3(C)C)c2sccc2n1
Summary of the method: as §1

dasatinib = compound: Cc1nc(Nc2ncc(C(=O)Nc3c(C)cccc3Cl)s2)cc(N2CCN(CCO)CC2)n1 [dasatinib]
Summary of the method: as §1

[2] = compound: Cc1ncc(-c2ccnc(Nc3ccc(S(C)(=O)=O)cc3)n2)n1C(C)C
Summary of the method: as §1

[3] = compound: Cn1cc(-c2ccc3c(c2)CCN3C(=O)Cc2cccc(C(F)(F)F)c2)c2c(N)ncnc21
Summary of the method: as §1

quisinostat = compound: Cn1cc(CNCC2CCN(c3ncc(C(=O)NO)cn3)CC2)c2ccccc21 [quisinostat]
Summary of the method: as §1

tipifarnib = compound: Cn1cncc1[C@@](N)(c1ccc(Cl)cc1)c1ccc2c(c1)c(-c1cccc(Cl)c1)cc(=O)n2C [tipifarnib]
Summary of the method: as §1

[4] = compound: NC(=O)Nc1cc(-c2cccc(F)c2)sc1C(=O)N[C@H]1CCCNC1
Summary of the method: as §1

[5] = compound: NC(=O)c1cnc(N[C@@H]2CCCC[C@@H]2N)nc1Nc1cccc(-n2nccn2)c1
Summary of the method: as §1

[6] = compound: NC1(c2ccc(-c3nc4ccn5c(=O)[nH]nc5c4cc3-c3ccccc3)cc2)CCC1
Summary of the method: as §1

Row | Target | log2 fold change (nilotinib) | log2 fold change [1] | log2 fold change (dasatinib) | log2 fold change [2] | log2 fold change [3] | log2 fold change (quisinostat) | log2 fold change (tipifarnib) | log2 fold change [4] | log2 fold change [5] | log2 fold change [6]
1 | CDC73 (UniProt Q6P1J9) | inactive: -0.037 | inactive: 0.002 | inactive: -0.019 | inactive: -0.022 | inactive: 0.012 | inactive: 0.009 | inactive: 0 | inactive: 0.033 | inactive: 0.022 | inactive: -0.007
2 | CDC42SE2 (UniProt Q9NRR3) | inactive: 0.19 | inactive: -0.036 | inactive: -0.044 | inactive: -0.041 | inactive: -0.058 | inactive: 0.06 | inactive: 0.085 | inactive: 0.022 | inactive: -0.043 | inactive: -0.065
3 | CDC7 (UniProt O00311) | inactive: -0.049 | inactive: 0.028 | inactive: 0.029 | inactive: 0.059 | inactive: 0.001 | inactive: -0.047 | inactive: -0.009 | inactive: 0.015 | inactive: -0.022 | inactive: -0.016
4 | CDCA2 (UniProt Q69YH5) | inactive: 0.076 | inactive: -0.09 | inactive: -0.009 | inactive: 0.018 | inactive: -0.065 | inactive: 0.012 | inactive: -0.14 | inactive: -0.002 | inactive: 0.048 | inactive: -0.183
5 | CDC20 (UniProt Q12834) | inactive: 0.1 | inactive: -0.101 | inactive: -0.044 | inactive: -0.088 | inactive: 0.017 | inactive: -0.082 | inactive: -0.035 | inactive: -0.01 | inactive: -0.143 | inactive: 0.061
6 | CERT isoform 3 (UniProt Q9Y5P4) | inactive: -0.015 | inactive: -0.03 | inactive: -0.012 | inactive: -0.023 | inactive: 0.036 | inactive: -0.004 | inactive: 0.019 | inactive: 0.013 | inactive: 0.014 | inactive: -0.016
7 | CDK11B (UniProt P21127) | inactive: -0.006 | inactive: -0.015 | inactive: -0.028 | inactive: 0.087 | inactive: 0.068 | inactive: -0.023 | inactive: 0.01 | inactive: 0.018 | inactive: 0.009 | inactive: -0.018
8 | CDC42BPA isoform 6 (UniProt Q5VT25) | inactive: -0.01 | inactive: 0.003 | inactive: 0.012 | inactive: 0.013 | inactive: 0.048 | inactive: 0.025 | inactive: 0 | inactive: 0.004 | inactive: -0.002 | inactive: 0.024
9 | CDK11A (UniProt Q9UQ88) | inactive: -0.007 | inactive: 0.053 | inactive: -0.016 | inactive: 0.085 | inactive: -0.001 | inactive: -0.031 | inactive: -0.029 | inactive: 0.035 | inactive: -0.029 | inactive: -0.034
10 | CDCA3 (UniProt Q99618) | inactive: 0.014 | inactive: -0.069 | inactive: -0.017 | inactive: 0.016 | inactive: -0.035 | inactive: 0.003 | inactive: 0.027 | inactive: 0.004 | inactive: 0.004 | inactive: 0.009
11 | CDC34 (UniProt P49427) | inactive: -0.002 | inactive: -0.018 | inactive: -0.007 | inactive: -0.015 | inactive: 0.059 | inactive: -0.022 | inactive: 0.033 | inactive: -0.009 | inactive: 0.042 | inactive: 0.01
12 | CDC37 (UniProt K7EKQ2) | inactive: 0.018 | inactive: -0.023 | inactive: -0.021 | inactive: -0.22 | inactive: -0.086 | inactive: 0.024 | inactive: -0.194 | inactive: 0.097 | inactive: -0.042 | inactive: 0.14
13 | CDC5L (UniProt Q99459) | inactive: 0.006 | inactive: 0.01 | inactive: 0.009 | inactive: -0.023 | inactive: 0.021 | inactive: -0.014 | inactive: 0.017 | inactive: 0.026 | inactive: 0.018 | inactive: 0.046
14 | CES2 isoform 4 (UniProt O00748) | inactive: -0.073 | inactive: -0.115 | inactive: 0.065 | inactive: 0.098 | inactive: -0.087 | inactive: -0.042 | inactive: 0.05 | inactive: -0.029 | inactive: 0.033 | inactive: 0.001
15 | CDC42EP4 (UniProt Q9H3Q1) | inactive: 0.061 | inactive: -0.043 | inactive: 0.039 | inactive: -0.026 | inactive: -0.028 | inactive: -0.045 | inactive: 0.006 | inactive: -0.02 | inactive: -0.025 | inactive: 0.02
16 | CDC37 (UniProt Q16543) | inactive: -0.009 | inactive: 0.01 | inactive: 0.02 | inactive: 0.017 | inactive: -0.018 | inactive: 0.088 | inactive: 0.025 | inactive: -0.032 | inactive: -0.031 | inactive: 0.013
17 | CENPK (UniProt Q9BS16) | inactive: -0.011 | inactive: -0.004 | inactive: 0.01 | inactive: 0.01 | inactive: -0.008 | inactive: -0.007 | inactive: 0.001 | inactive: 0.015 | inactive: 0.043 | inactive: 0.006
18 | CDCP1 (UniProt Q9H5V8) | inactive: -0.025 | inactive: -0.039 | inactive: 0.017 | inactive: 0.003 | inactive: 0.01 | inactive: -0.068 | inactive: -0.029 | inactive: 0.017 | inactive: 0.009 | inactive: -0.001
19 | CDV3 (UniProt Q9UKY7) | inactive: -0.004 | inactive: 0.016 | inactive: -0.008 | inactive: 0.014 | inactive: -0.034 | inactive: 0.025 | inactive: 0.055 | inactive: -0.016 | inactive: -0.032 | inactive: 0.022
20 | CDC42 isoform 1 (UniProt P60953) | inactive: -0.008 | inactive: 0.022 | inactive: 0.007 | inactive: 0.037 | inactive: -0.043 | inactive: -0.117 | inactive: -0.004 | inactive: -0.088 | inactive: 0.02 | inactive: -0.041
21 | CDC27 isoform 2 (UniProt P30260) | inactive: 0.041 | inactive: -0.025 | inactive: -0.024 | inactive: 0.022 | inactive: 0.01 | inactive: -0.014 | inactive: -0.016 | inactive: 0.007 | inactive: 0 | inactive: 0.005
22 | CDK16 isoform 2 (UniProt Q00536) | inactive: 0.043 | inactive: 0.412 | inactive: 0.033 | active: 0.433 | inactive: -0.033 | inactive: -0.044 | inactive: -0.01 | inactive: -0.016 | inactive: 0.081 | inactive: -0.124
23 | CFH (UniProt P08603) | inactive: 0.129 | inactive: -0.016 | inactive: 0.008 | inactive: 0.209 | inactive: -0.032 | inactive: -0.01 | inactive: -0.033 | inactive: -0.005 | inactive: -0.047 | inactive: -0.021
24 | CEPT1 (UniProt Q9Y6K0) | inactive: -0.053 | inactive: -0.015 | inactive: -0.018 | inactive: 0.028 | inactive: 0.06 | inactive: -0.021 | inactive: -0.068 | inactive: 0.028 | inactive: -0.008 | inactive: -0.094
25 | CDK2AP1 (UniProt O14519) | inactive: 0.169 | inactive: 0.062 | inactive: -0.012 | inactive: -0.03 | inactive: -0.012 | inactive: -0.044 | inactive: 0.096 | inactive: -0.119 | inactive: -0.008 | inactive: -0.077
26 | CEP131 (UniProt Q9UPN4) | inactive: 0.013 | inactive: 0.056 | inactive: 0.052 | inactive: 0.047 | inactive: -0.028 | inactive: -0.078 | inactive: 0.031 | inactive: -0.009 | inactive: 0.026 | inactive: -0.2
27 | CDK5RAP3 isoform 4 (UniProt Q96JB5) | inactive: 0.003 | inactive: -0.016 | inactive: -0.067 | inactive: 0.006 | inactive: 0.045 | inactive: -0.03 | inactive: -0.043 | inactive: 0.023 | inactive: 0.026 | inactive: -0.007
28 | CHAC2 (UniProt Q8WUX2) | inactive: 0.004 | inactive: 0.043 | inactive: -0.022 | inactive: -0.024 | inactive: 0.036 | inactive: -0.066 | inactive: 0.041 | inactive: 0.019 | inactive: 0.017 | inactive: -0.027
29 | CDK5RAP2 (UniProt Q96SN8) | inactive: 0.024 | inactive: -0.009 | inactive: -0.002 | inactive: 0.056 | inactive: -0.015 | inactive: -0.081 | inactive: -0.011 | inactive: -0.006 | inactive: -0.104 | inactive: -0.001

Excerpt: entries 24–25
Row | Target | log2 fold change (nilotinib) | log2 fold change [1] | log2 fold change (dasatinib) | log2 fold change [2] | log2 fold change [3] | log2 fold change (quisinostat) | log2 fold change (tipifarnib) | log2 fold change [4] | log2 fold change [5] | log2 fold change [6]
24 | CEPT1 (UniProt Q9Y6K0) | inactive: -0.053 | inactive: -0.015 | inactive: -0.018 | inactive: 0.028 | inactive: 0.06 | inactive: -0.021 | inactive: -0.068 | inactive: 0.028 | inactive: -0.008 | inactive: -0.094
25 | CDK2AP1 (UniProt O14519) | inactive: 0.169 | inactive: 0.062 | inactive: -0.012 | inactive: -0.03 | inactive: -0.012 | inactive: -0.044 | inactive: 0.096 | inactive: -0.119 | inactive: -0.008 | inactive: -0.077

Source: the supplement of paper PMC10849652
